# Test results taken from patent publication US5302698.
# Where cells or extracts were used, other partners may take part. Protein sequences can lack the tags named with them.
# Tests used:
# [1] = molecular target: T1, lambda2 cDNA-encoded AFP enhancer-binding protein (Homo sapiens) (UniProt Q15911); experiment: EMSA; details: two shifted bands (a and b) with lambda2 lysogen extract, none with lambda gt11 control extract; probe was SmaI/HincII fragment of pAFE(HgiAI/BstNI)1; protein in a lysate after overexpression; label: 32P 5' end
# T1 sequence: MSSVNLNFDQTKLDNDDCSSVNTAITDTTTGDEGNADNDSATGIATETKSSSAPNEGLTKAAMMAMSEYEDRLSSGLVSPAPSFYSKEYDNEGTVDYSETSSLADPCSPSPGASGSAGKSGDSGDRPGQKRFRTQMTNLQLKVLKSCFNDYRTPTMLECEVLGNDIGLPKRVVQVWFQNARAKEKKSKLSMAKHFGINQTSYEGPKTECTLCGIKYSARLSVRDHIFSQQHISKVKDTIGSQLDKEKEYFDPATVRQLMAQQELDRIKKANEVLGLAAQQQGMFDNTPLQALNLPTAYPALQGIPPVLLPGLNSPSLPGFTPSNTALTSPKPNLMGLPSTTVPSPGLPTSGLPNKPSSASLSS
# [2] = molecular target: T1, lambda2 cDNA-encoded AFP enhancer-binding protein (Homo sapiens); experiment: footprint; details: DNase I protection of 15 bp containing TTAATAATTA; 10 mM Tris-HCl pH 7.5, 50 mM NaCl, 2.5 mM MgCl2, poly(dI-dC), room temperature; protein in a lysate after overexpression; label: 32P 5' end
sequence,measurement,setting,value
"AGGGAGCCTGATTAATAATTACACTAAGTCAA (double strand) [AFP enhancer region, footprinted segment]",binding result,[1],binds
same,binding result,[2],binds
